Experimental data as given in PubChem BioAssay AID493014 (National Center for Advancing Translational Sciences (NCATS), 2011).
Some of the results follow. These are further read-outs of the screen, such as a control signal, another cell line or another target. No call is given for them. Compounds called inactive in the main read-out are mostly missing here. Potencies come from curve fits of mixed quality, noted in brackets.

Assay: qHTS Assay to Find Inhibitors of Chronic Active B-Cell Receptor Signaling
Settings: ABC-DLBCL IkBa-CBG/CBR reporter, luminescence ratio (green luciferase fused to IkBa over red control in TMD8 lymphoma cells), 4 h
How it was run: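 TMD8 human ABC-DLBCL cells with doxycycline-inducible IκBα–green luciferase fusion and unfused red luciferase, in 0.5% FBS medium; compounds up to 46 uM, 4 h at 37C. Green/red luminescence ratio, filter-overlap corrected, fitted to concentration-response curves.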

[1] = measured here: CBR red luminescence, cell number

Structure (SMILES)	AC50 [1]	AC50 (measured here: IkBa-CBG green luminescence)
Cn1c(CN2CCCC2)nc2cc(NC(=O)C3CCCCC3)ccc21	12.6 µM [falling, partial curve, poor fit]	
Cc1ccc(NC(=O)c2ccc(NC(=O)c3ccccc3)cc2)cc1C	6.31 µM [falling, partial curve]	
COc1ccc(C2C3=C(CCCC3=O)Nc3nc(SCc4ccccc4)nn32)cc1OC (stereo unspecified)	0.651 µM [falling, full curve, poor fit]	
O=C(COc1ccccc1O)Nc1ccccc1Cl	1.26 µM [falling, full curve]	
Cc1c(NC(=O)c2cc3ccccc3oc2=O)c(=O)n(-c2ccccc2)n1C	2.59 µM [rising, single point]	
COc1ccc(N(C)S(=O)(=O)c2ccc3c(c2)oc(=O)n3C)cc1	4.11 µM [falling, single point]	
O=C(COc1ccc(Cl)cc1)Nc1ccc2oc(-c3ccncc3)nc2c1	3.26 µM [falling, single point]	
O=c1[nH]c(/C=C\c2ccc(O)c(O)c2)nc(O)c1[N+](=O)[O-]	7.94 µM [falling, partial curve]	
COc1ccc(-c2onc(C)c2-c2cnn(-c3ccccc3)c2)c(O)c1C	11.2 µM [falling, partial curve, poor fit]	31.6 µM [rising, partial curve, poor fit]
O=C(c1cc[n+]([O-])cc1)N1CCCC(N2CCN(c3cccc(C(F)(F)F)c3)CC2)C1 (stereo unspecified)	0.891 µM [falling, full curve, poor fit]	
COc1ccc(C(=O)OCC(=O)c2c[nH]c3ccccc23)cc1OC	6.51 µM [falling, single point]	
Cc1ccc(C)c(CN2CCC(CNC(=O)Nc3ccc(F)c(Cl)c3)CC2)c1	11.2 µM [falling, partial curve, poor fit]	
CC(=O)Nc1ccc2nc(NC(=O)c3cccs3)sc2c1	1 µM [falling, full curve, poor fit]	
COc1ccc(-c2[nH]n(-c3ccc([N+](=O)[O-])cc3)c(=O)c2C=NCc2ccccc2)cc1	0.366 µM [rising, full curve]	
O=C(NCC1CCCO1)C1CCN(CC2CCCCC2)CC1 (stereo unspecified)	4.11 µM [rising, full curve]	
COC(=O)[C@H](C)N(Cc1ccc(Cl)c(Cl)c1)S(=O)(=O)CCN1CCCC1	16.4 µM [falling, partial curve]	
CCc1ccc(Nc2cc(=O)n(C3CCCCC3)c(=O)[nH]2)cc1	4.11 µM [rising, full curve]	
Cc1ccc(NC(=O)c2ccccc2Cl)c(Cl)c1	20.6 µM [rising, partial curve, poor fit]	
Cc1ccc(NC(=O)c2cnc(N3CCN(c4ccccn4)CC3)c3ccccc23)c(Br)c1	12.6 µM [falling, partial curve]	
CCOC(=O)c1c(C)n(CC(O)CN(CC)CC)c2cc(Br)c(OC)cc12 (stereo unspecified)	35.5 µM [falling, single point]	

3 compounds out of the list, ordered by heavy-atom count, low to high.
Structure (SMILES)	AC50 [1]	AC50 (measured here: IkBa-CBG green luminescence)
O=C(NCC1CCCO1)C1CCN(CC2CCCCC2)CC1 (stereo unspecified)	4.11 µM [rising, full curve]	
CCc1ccc(Nc2cc(=O)n(C3CCCCC3)c(=O)[nH]2)cc1	4.11 µM [rising, full curve]	
COc1ccc(C(=O)OCC(=O)c2c[nH]c3ccccc23)cc1OC	6.51 µM [falling, single point]	

(more compounds)

Structure (SMILES)	AC50 [1]	AC50 (measured here: IkBa-CBG green luminescence)
O=C(CSc1ccc(-c2cccs2)nn1)c1cccs1	15.8 µM [falling, single point]	
O=C(OCC(=O)N1CCc2ccccc21)c1ccccc1	14.1 µM [falling, single point]	
O=C(Oc1ccc(OC(=O)N2CCOCC2)cc1)c1ccccc1	20.6 µM [rising, single point]	
CSCC[C@H](NC(=O)COc1ccc(Cl)cc1Cl)c1nc2ccccc2[nH]1	29.1 µM [falling, single point]	
COCCCn1c(-c2cccs2)nc2nc3ccccc3nc21	3.55 µM [rising, single point]	
CN(C)c1nc(N)nc(N(c2ccccc2)c2ccccc2)n1	5.8 µM [rising, full curve, poor fit]	
CC[C@]12c3[nH]c4ccccc4c3CCN1C(=O)C(CC(=O)NCc1cccc(C(F)(F)F)c1)C[C@@H]2C(=O)N1CCN(C(=O)c2ccco2)CC1 (stereo partly specified)	16.4 µM [falling, partial curve]	
c1ccc(CCCc2nc(-c3cccnc3)no2)cc1	0.631 µM [rising, full curve, poor fit]	
NC(=O)C1CCN(C2CC(=O)N(Cc3ccc(N4CCCC4=O)cc3)C2=O)CC1 (stereo unspecified)	2.31 µM [rising, partial curve, poor fit]	
CCOc1ccc(-c2cc(C(=O)N/N=C(\C)c3cccnc3)c3ccccc3n2)c(OCC)c1	0.0891 µM [rising, full curve, poor fit]	
C=CCc1c(C)nc2nc(SCC(=O)Nc3ccc(C)c(C)c3)nn2c1C	35.5 µM [falling, single point]	
O=C(Nc1ncc2c(n1)-c1ccccc1CC2)c1ccc(Cl)cc1	3.16 µM [falling, partial curve]	
Cc1cccc(C)c1NC(=O)CCCN1CC(C)OC(C)C1 (stereo unspecified)	29.1 µM [rising, single point]	
OCCCNc1nc(-c2ccc(Cl)cc2)nnc1-c1ccccc1	8.2 µM [falling, partial curve]	
COc1ccc(CCN2C(=O)c3[nH]nc(-c4ccccc4O)c3C2c2cccc(Cl)c2)cc1 (stereo unspecified)	25.1 µM [falling, single point]	
CC(C)(C)n1nnnc1CN1CCN(C(c2ccccc2)c2ccccc2)CC1	14.6 µM [falling, partial curve]	
Cc1ccc2[nH]c(C(=O)N3CCCC(Nc4ccc(F)cc4)C3)cc2c1 (stereo unspecified)	35.5 µM [falling, single point]	
COC1=C(c2ccccc2)C(=O)c2ccccc2C1=O	23.1 µM [falling, single point]	
Cc1ccc(S(=O)(=O)Nc2ccncc2)c(C)c1N(C)S(=O)(=O)c1ccc(F)cc1	1.84 µM [rising, partial curve, poor fit]	
O=C(Nc1ccccc1)c1ccc(-c2ccc([N+](=O)[O-])cc2)o1	35.5 µM [falling, single point]	
